Measured values from the supplement of paper PMC10849652.
Some of the results follow.

Chains of the proteins cited; added tags and fusions are not shown. Lines headed by an entry give the natural chain unless they say otherwise; changes in a name come on top.
UniProt Q86YV9: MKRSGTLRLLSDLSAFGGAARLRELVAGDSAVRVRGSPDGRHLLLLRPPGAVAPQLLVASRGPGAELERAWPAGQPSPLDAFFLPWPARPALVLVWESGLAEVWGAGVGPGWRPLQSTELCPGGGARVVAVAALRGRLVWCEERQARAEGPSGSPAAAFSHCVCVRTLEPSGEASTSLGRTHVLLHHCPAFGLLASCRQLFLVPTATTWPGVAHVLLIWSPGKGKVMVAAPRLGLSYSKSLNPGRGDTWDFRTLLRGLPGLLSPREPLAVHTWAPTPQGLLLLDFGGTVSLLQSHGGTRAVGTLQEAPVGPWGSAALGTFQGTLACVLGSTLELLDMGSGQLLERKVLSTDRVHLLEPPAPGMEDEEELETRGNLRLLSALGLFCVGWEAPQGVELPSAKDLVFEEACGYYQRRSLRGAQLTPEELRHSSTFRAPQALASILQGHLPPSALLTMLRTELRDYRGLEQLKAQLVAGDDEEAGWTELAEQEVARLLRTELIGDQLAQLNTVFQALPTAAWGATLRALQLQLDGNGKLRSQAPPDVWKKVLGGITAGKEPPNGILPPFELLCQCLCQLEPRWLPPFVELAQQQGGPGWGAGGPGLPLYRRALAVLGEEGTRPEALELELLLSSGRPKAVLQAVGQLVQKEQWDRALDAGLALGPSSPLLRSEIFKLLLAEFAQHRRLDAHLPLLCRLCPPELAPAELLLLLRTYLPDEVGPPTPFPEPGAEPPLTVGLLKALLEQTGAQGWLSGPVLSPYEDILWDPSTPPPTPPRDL
UniProt Q00839, whole entry, looked up: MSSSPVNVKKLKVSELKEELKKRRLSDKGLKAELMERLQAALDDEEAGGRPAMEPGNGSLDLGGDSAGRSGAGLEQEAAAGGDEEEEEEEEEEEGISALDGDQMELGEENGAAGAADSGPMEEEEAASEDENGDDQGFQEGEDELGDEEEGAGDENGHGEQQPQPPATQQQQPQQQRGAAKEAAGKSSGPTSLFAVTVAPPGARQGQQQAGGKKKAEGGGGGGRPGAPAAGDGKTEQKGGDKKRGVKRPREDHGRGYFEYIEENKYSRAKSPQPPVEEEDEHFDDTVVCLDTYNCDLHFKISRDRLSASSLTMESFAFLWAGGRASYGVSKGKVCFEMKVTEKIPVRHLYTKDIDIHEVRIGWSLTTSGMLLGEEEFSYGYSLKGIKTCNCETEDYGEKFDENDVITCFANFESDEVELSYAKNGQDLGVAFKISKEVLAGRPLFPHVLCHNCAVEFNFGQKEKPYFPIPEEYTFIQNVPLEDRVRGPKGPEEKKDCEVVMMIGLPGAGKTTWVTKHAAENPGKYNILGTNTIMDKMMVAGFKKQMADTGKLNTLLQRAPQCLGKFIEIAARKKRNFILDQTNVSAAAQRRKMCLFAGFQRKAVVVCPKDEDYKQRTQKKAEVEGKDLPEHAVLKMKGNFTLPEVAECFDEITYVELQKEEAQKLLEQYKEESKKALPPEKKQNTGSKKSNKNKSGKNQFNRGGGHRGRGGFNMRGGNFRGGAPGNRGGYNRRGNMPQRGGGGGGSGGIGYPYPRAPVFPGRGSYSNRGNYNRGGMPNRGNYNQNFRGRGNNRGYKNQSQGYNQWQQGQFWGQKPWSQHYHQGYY
UniProt Q96MH2: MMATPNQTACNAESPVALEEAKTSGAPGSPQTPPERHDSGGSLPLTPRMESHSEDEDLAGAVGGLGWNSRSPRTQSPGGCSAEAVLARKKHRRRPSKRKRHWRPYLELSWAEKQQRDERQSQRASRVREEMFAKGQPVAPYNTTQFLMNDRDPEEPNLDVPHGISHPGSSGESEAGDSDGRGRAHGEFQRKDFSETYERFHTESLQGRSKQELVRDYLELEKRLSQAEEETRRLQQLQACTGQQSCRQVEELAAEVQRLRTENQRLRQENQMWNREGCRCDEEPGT
UniProt Q15034: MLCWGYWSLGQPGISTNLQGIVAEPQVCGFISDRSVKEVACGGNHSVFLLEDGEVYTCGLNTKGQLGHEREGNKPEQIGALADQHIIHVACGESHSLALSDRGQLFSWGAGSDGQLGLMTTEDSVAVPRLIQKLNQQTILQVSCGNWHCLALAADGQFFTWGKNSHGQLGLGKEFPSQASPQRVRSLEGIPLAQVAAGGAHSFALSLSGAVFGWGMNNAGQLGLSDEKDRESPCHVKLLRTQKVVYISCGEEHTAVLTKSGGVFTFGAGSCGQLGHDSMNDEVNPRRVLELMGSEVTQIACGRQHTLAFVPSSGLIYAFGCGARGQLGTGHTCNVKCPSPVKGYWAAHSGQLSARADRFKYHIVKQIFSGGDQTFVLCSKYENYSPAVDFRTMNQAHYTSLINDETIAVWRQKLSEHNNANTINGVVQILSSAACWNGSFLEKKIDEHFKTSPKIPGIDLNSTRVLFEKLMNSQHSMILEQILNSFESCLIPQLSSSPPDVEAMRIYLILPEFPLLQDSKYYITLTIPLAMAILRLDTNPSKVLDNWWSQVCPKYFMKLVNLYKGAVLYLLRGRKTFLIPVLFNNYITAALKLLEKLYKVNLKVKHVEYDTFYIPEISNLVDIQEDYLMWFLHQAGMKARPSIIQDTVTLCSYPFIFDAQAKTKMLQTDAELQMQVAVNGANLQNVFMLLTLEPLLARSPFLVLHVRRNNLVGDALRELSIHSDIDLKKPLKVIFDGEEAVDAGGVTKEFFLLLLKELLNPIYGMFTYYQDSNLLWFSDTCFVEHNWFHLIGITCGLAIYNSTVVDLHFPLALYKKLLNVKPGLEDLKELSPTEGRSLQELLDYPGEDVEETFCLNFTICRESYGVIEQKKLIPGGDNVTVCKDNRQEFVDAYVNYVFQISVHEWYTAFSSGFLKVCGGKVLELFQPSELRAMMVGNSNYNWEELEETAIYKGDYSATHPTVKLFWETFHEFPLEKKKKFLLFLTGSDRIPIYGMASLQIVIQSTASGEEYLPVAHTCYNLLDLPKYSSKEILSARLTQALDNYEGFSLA
UniProt Q96JB3: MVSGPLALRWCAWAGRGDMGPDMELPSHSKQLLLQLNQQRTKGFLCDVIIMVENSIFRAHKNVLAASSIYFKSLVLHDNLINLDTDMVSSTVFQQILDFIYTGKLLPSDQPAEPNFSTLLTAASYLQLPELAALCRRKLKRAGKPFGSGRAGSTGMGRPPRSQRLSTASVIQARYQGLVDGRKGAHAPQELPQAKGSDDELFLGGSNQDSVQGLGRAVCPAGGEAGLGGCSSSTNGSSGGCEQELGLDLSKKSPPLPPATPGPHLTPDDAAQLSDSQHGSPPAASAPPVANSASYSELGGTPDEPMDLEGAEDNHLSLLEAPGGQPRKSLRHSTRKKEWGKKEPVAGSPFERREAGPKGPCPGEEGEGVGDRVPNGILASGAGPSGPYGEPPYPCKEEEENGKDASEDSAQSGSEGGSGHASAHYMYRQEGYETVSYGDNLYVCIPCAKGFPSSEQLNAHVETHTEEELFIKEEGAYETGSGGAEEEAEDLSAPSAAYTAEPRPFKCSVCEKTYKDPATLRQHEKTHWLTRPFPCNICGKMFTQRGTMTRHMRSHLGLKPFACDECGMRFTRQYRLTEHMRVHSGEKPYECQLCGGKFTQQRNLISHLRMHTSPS
UniProt Q9NSC5: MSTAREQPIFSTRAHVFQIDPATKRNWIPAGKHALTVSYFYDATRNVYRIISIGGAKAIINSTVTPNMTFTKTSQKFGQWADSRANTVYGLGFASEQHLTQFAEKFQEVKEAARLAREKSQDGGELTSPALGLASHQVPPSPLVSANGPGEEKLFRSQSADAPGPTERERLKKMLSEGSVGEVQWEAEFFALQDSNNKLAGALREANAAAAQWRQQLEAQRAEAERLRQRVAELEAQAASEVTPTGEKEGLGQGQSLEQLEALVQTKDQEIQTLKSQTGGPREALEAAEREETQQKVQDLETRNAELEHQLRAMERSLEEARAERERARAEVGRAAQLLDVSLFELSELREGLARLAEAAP
UniProt P04035: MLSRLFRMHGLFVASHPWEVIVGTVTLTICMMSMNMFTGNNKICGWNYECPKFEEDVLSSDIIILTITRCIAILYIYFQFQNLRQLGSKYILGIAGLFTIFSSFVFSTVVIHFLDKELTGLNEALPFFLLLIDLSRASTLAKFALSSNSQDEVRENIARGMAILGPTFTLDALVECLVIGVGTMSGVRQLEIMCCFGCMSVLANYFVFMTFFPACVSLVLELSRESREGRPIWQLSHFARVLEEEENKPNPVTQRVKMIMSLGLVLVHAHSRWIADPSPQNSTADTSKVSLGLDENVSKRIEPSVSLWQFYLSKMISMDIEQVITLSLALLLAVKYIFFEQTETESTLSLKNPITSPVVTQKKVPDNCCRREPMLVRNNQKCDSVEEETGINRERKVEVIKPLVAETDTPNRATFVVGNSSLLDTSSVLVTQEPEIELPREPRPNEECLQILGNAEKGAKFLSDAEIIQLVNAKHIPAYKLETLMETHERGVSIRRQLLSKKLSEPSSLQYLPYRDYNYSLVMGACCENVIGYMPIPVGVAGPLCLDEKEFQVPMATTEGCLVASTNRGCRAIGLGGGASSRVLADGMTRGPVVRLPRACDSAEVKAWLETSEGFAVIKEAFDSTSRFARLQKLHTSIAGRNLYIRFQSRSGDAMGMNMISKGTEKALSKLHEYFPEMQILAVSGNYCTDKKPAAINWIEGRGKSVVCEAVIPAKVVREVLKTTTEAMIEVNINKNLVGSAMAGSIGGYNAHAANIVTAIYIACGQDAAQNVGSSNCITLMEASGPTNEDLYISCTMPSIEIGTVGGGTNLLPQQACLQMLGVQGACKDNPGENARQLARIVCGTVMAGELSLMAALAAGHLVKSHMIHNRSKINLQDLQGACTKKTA
UniProt Q15651: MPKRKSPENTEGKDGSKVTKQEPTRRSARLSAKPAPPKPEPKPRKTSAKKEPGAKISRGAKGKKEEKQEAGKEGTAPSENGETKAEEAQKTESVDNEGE
UniProt Q9NRZ9: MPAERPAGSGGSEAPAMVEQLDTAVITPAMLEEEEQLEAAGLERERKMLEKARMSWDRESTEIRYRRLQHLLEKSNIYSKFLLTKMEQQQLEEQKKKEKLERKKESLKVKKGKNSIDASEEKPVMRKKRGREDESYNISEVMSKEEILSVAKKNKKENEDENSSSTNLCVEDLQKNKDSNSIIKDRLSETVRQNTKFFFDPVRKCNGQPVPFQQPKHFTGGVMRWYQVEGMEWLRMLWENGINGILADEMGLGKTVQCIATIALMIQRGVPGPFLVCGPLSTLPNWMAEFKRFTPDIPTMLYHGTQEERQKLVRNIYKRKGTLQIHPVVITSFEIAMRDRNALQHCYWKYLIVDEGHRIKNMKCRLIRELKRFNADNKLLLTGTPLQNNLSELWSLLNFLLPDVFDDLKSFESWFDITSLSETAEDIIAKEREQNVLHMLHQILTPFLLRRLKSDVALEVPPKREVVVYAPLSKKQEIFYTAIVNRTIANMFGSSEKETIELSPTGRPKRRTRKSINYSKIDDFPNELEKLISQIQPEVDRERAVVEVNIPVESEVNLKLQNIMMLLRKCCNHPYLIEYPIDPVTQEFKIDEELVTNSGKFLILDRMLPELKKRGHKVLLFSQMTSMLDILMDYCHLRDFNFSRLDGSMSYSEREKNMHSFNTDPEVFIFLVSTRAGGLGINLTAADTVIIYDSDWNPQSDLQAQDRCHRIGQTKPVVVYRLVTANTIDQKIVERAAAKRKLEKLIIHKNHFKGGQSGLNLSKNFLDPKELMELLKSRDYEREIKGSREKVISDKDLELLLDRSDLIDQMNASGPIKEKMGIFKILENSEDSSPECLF
UniProt Q96ED9: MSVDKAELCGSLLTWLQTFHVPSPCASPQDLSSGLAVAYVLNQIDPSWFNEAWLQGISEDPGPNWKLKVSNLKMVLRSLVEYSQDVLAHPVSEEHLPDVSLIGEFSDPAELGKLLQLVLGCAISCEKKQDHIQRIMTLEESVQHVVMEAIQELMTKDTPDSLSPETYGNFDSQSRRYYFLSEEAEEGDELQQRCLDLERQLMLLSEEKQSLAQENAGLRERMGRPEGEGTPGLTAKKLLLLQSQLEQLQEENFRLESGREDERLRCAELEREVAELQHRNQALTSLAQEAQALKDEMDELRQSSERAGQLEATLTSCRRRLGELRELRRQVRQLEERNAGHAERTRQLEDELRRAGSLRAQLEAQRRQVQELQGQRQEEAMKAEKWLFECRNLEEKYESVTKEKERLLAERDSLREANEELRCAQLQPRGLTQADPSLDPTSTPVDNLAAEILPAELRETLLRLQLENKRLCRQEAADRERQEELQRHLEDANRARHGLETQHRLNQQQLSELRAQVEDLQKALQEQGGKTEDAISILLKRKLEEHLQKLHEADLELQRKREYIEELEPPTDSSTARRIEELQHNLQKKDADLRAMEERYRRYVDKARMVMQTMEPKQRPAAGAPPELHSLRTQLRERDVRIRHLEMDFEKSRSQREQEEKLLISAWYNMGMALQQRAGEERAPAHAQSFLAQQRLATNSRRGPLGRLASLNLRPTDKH
UniProt Q9BW72: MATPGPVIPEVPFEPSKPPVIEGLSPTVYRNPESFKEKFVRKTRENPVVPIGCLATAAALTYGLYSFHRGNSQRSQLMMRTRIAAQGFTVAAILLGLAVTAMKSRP

Experiments:
Test in all cases: log2 fold change, soluble protein after heating vs DMSO (PISA); higher = thermal stabilisation; K562 lysate, 10 uM; active = over 0.2 and 3.5 SD of the protein, either way, in both replicates (recomputed)
alisertib = compound: COc1cc(Nc2ncc3c(n2)-c2ccc(Cl)cc2C(c2c(F)cccc2OC)=NC3)ccc1C(=O)O [alisertib]
How it was run: (§1)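 K562 pellets were dounce-homogenised in PBS pH 7.4 containing 1 mM MgCl2, and the crude extract, at 1 mg/mL protein, was exposed to 10 μM compound for 30 min. Aliquots were heated for 3 min across 48°C-58°C, pooled, brought to 0.5% NP-40 at 4°C and spun at 21,000xg for 90 min, with the supernatant taken as soluble protein. TMTpro 16plex LC-MS/MS with equalised channel sums quantified that protein. Values are log-two fold changes in thermal stability relative to solvent controls, taken from duplicates.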

gefitinib = compound: COc1cc2ncnc(Nc3ccc(F)c(Cl)c3)c2cc1OCCCN1CCOCC1 [gefitinib]
How it was run: as §1

[1] = compound: CC[C@@H]1C(=O)N(C)c2cnc(Nc3ccc(C(=O)NC4CCN(C)CC4)cc3OC)nc2N1C1CCCC1
How it was run: as §1

[2] = compound: CCn1cc(-c2ccnc3[nH]c(-c4cccc(CN(C)C)c4)cc23)c(-c2ccc(NC(=O)N(C)C)cc2)n1
How it was run: as §1

[3] = compound: CN1CCC(CNc2ccc3ncc(-c4cccc(OC(F)(F)F)c4)n3n2)CC1
How it was run: as §1

saracatinib = compound: CN1CCN(CCOc2cc(OC3CCOCC3)c3c(Nc4c(Cl)ccc5c4OCO5)ncnc3c2)CC1 [saracatinib]
How it was run: as §1

sotrastaurin = compound: CN1CCN(c2nc(C3=C(c4c[nH]c5ccccc45)C(=O)NC3=O)c3ccccc3n2)CC1 [sotrastaurin]
How it was run: as §1

alvocidib = compound: CN1CC[C@H](c2c(O)cc(O)c3c(=O)cc(-c4ccccc4Cl)oc23)[C@H](O)C1 [alvocidib]
How it was run: as §1

[4] = compound: CNc1nc(-c2ccc3c(N)n[nH]c3c2)cc(N2C[C@@H](C(=O)NC3CCCCC3)CC[C@H]2C)n1
How it was run: as §1

encorafenib = compound: COC(=O)N[C@@H](C)CNc1nccc(-c2cn(C(C)C)nc2-c2cc(Cl)cc(NS(C)(=O)=O)c2F)n1 [encorafenib]
How it was run: as §1

[5] = compound: COC(=O)[C@H](CCSC)NC(=O)C1=C(C=C(C=C1)NC[C@H](CS)N)C2=CC=CC=C2
How it was run: as §1

[6] = compound: CCn1c(C(=O)N(C2CC2)C2CC2)cc2c3c(ncn3C)c(Nc3cc(C)n(C)n3)nc21
How it was run: as §1

Tubastatin A = compound: CN1CCc2c(c3ccccc3n2Cc2ccc(C(=O)NO)cc2)C1 [Tubastatin A]
How it was run: as §1

[7] = compound: CNC(=O)C1=CC=CC=C1NC2=NC(=NC=C2Cl)NC3=C(C=C(C=C3)N4CCOCC4)OC
How it was run: as §1

[8] = compound: CCCS(=O)(=O)Nc1ccc(F)c(C(=O)c2c[nH]c3ncc(Cl)cc23)c1F
How it was run: as §1

barasertib = compound: CCN(CCCOc1ccc2c(Nc3cc(CC(=O)Nc4cccc(F)c4)[nH]n3)ncnc2c1)CCOP(=O)(O)O [barasertib]
How it was run: as §1

volasertib = compound: CC[C@@H]1C(=O)N(C)c2cnc(Nc3ccc(C(=O)N[C@H]4CC[C@H](N5CCN(CC6CC6)CC5)CC4)cc3OC)nc2N1C(C)C [volasertib]
How it was run: as §1

[9] = compound: COc1cc2nc(-c3cc(F)ccc3O)nc(N[C@@H]3CNC[C@H]3C(C)(C)O)c2cc1OC
How it was run: as §1

Measured: log2 fold change

HSD3B7 (UniProt Q9H2F3)
inactive: alisertib -0.142 | gefitinib -0.059

HPS6 (UniProt Q86YV9)
inactive: [1] -0.01 | [2] -0.169 | [3] -0.277 | saracatinib 0.165 | sotrastaurin -0.04 | alvocidib -0.164 | [4] 0.238 | encorafenib 0.036 | [5] 0.057 | alisertib 0.066 | gefitinib -0.097

HNRNPU isoform 2 (UniProt Q00839)
inactive: saracatinib 0.065 | [4] -0.035

HEXIM2 (UniProt Q96MH2)
inactive: [6] 0.335 | saracatinib 0.013 | sotrastaurin -0.003 | Tubastatin A 0.108 | [7] 0 | [4] 0.004

HERC3 (UniProt Q15034)
inactive: [1] 0.343 | [6] 0.016 | saracatinib -0.1 | sotrastaurin 0.124 | Tubastatin A -0.169 | [4] -0.115 | encorafenib 0.015 | [5] -0.007

HIC2 isoform 2 (UniProt Q96JB3)
inactive: sotrastaurin 0.083

HOMER3 (UniProt Q9NSC5)
inactive: [8] 0.123 | barasertib -0.129 | volasertib -0.011 | [2] 0.037 | [3] -0.071 | sotrastaurin 0.028 | alvocidib -0.066 | [9] 0.069

HMGCR isoform 3 (UniProt P04035)
inactive: [1] -0.018 | sotrastaurin -0.028 | encorafenib 0.221 | [5] -0.058

HMGN3 (UniProt Q15651)
inactive: [8] -0.028 | barasertib -0.175 | volasertib 0.034 | [6] -0.059 | [2] -0.071 | [3] 0.102 | saracatinib -0.044 | sotrastaurin 0.038 | alvocidib -0.017 | Tubastatin A 0.011 | [7] -0.068 | [4] 0.032 | alisertib -0.055 | [9] -0.004 | gefitinib -0.062

HELLS (UniProt Q9NRZ9)
inactive: [1] 0.104 | [6] -0.025 | saracatinib -0.015 | sotrastaurin -0.043 | Tubastatin A -0.149 | [7] 0.005 | [4] 0.019 | encorafenib -0.07 | [5] -0.045 | alisertib -0.042 | gefitinib -0.042

HP1BP3 isoform 5 (UniProt Q5SSJ5)
inactive: [7] 0.099

HOOK2 (UniProt Q96ED9)
inactive: [8] 0.043 | barasertib 0.227 | volasertib -0.014 | [2] -0.028 | [3] -0.232 | saracatinib -0.019 | alvocidib 0.175 | [7] 0.145 | [4] 0.268 | alisertib -0.069 | [9] 0.126 | gefitinib -0.021

HGF (UniProt P14210)
inactive: [6] 0.011 | [2] 0.154 | [3] 0.037 | sotrastaurin -0.09 | alvocidib -0.06 | Tubastatin A 0.162 | [7] 0.039

Quoted from the entries so far (two entries):
HOMER3 (UniProt Q9NSC5)
inactive: [8] 0.123 | barasertib -0.129 | volasertib -0.011 | [2] 0.037 | [3] -0.071 | sotrastaurin 0.028 | alvocidib -0.066 | [9] 0.069

HMGCR isoform 3 (UniProt P04035)
inactive: [1] -0.018 | sotrastaurin -0.028 | encorafenib 0.221 | [5] -0.058

Next part:

HIGD2A (UniProt Q9BW72)
inactive: [2] 0.007 | [3] 0.166 | saracatinib 0.146 | sotrastaurin 0.123 | alvocidib 0.102 | [4] 0.097 | alisertib -0.078 | gefitinib 0.055

HNRNPL, A0A3B3ITJ4
inactive: [8] 0.087 | barasertib 0.14 | volasertib -0.072 | [9] 0.032

HNRNPD (UniProt D6RF44)
inactive: sotrastaurin 0.079 | alisertib -0.006 | gefitinib -0.014
